For one substance, binding results are on record in paper PMC7935889.

These are yes or no findings as the source states them, for the method shown. Binding seen in cells or lysates may run through a third protein. A result given as binding can be weak or reduced; the word gives no strength. Where a sequence is shown, tags or fusion partners need not be part of it.

For the test, the target named is T1, Recombinant GST-hSLP4A (human (from the prefix h in hSlp4-a)) (UniProt Q96C24).
T1 sequence: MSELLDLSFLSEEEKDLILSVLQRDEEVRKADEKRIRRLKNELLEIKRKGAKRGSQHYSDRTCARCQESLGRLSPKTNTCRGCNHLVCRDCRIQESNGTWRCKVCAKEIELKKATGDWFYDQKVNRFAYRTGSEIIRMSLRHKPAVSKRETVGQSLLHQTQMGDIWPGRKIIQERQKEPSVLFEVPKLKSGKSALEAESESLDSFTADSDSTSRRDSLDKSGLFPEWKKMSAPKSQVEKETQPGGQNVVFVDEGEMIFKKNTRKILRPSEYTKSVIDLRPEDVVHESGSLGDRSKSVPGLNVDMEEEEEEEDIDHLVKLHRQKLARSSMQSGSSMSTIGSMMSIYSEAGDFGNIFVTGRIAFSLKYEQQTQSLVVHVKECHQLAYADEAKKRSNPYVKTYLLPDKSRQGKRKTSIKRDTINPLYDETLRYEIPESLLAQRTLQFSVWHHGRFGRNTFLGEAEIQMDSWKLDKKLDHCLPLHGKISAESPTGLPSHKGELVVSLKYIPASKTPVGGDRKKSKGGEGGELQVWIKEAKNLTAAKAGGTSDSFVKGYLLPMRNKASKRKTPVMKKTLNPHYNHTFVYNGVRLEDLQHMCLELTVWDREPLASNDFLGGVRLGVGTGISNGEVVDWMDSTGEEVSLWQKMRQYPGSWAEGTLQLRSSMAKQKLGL
The test is described as follows: pull-down; GST-hSLP4A held on glutathione sepharose beads, incubated with astrocyte lysate for 1 hour at 4 °C; lysis buffer 20 mM HEPES, 150 mM NaCl, 0.5% Triton X-100; four washes; western blot for RAB8 and GST; lysates of WT and Dbn-/- astrocytes without or 24 h after scratch injury; only the target …. For orientation: In western blotting, separated proteins are transferred to a membrane and probed.

With “endogenous GTP-bound RAB8 from astrocytes”, the binding entry is on record as “binds”.
